From patent publication US12077555B2, “STAT degraders and uses thereof” (Kymera Therapeutics, Inc., priority 2019, dated 2024)
The structures given here were assigned with low confidence; some may be wrong.

The chains behind the UniProt entries cited, without tags or fusion partners.
UniProt P40763, whole entry: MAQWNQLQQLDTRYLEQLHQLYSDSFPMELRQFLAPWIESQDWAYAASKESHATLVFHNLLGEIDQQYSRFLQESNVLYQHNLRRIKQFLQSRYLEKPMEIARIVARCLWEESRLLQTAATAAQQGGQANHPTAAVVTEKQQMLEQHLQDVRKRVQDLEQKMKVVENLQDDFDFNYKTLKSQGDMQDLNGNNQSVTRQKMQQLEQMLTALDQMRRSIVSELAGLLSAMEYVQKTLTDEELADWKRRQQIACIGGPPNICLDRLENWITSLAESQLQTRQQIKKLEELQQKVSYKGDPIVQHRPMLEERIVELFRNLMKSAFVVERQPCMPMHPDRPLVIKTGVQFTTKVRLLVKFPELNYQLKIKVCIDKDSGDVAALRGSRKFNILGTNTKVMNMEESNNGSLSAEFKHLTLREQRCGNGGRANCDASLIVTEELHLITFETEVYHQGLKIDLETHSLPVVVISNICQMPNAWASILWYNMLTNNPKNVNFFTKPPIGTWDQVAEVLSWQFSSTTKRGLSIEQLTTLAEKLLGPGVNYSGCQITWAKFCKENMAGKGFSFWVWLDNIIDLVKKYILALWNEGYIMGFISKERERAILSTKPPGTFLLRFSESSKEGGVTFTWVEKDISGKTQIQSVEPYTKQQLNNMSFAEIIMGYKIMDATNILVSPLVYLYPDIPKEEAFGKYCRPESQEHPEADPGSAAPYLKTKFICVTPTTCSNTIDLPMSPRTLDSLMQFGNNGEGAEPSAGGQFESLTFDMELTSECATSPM

Molecular target: STAT3 (Homo sapiens, UniProt P40763)
Test: Quantitation of STAT3 degradation in A549 cells by Western blot
Assay type: cell-based
Conditions: read-out: A549 DC50, 24 hours, tested up to 30 μM or 10 μM
Description: Degradation of total cellular STAT3 protein in A549 was quantitatively measured using SDS-PAGE and Western blot analysis. A549 cells (5×10^5 cells/well, 2 mL) were seeded into 6-well plates and were incubated in the incubator under 5% CO2 overnight to reach ˜80% confluency. The next day, the culture medium was changed with 1 ml fresh media. Then, 1 mL of media containing 2× compound solution was added into the well to make the final concentration of 30 μM, 10 μM, 3 μM, 1 μM, 0.3 μM and 0 μM (DMSO). The media was thoroughly mixed and incubated for 24 hours at 37° C. under 5% CO2. Then, the culture media was removed from the assay plates and the cells were washed with ice-cold PBS twice. To prepare cell lysates, 200 ul pre-chilled RIPA lysis buffer (Boston BioProducts BP-115D) with protease/phosphatase inhibitor (Roche 05892791001/Roche 04906837001) was added directly into the well to lyse the cells for 20 minutes on ice. The cell lysates were then transferred to centrifuge tubes. Insoluble part of lysates was removed by centrifuging the lysates at 13000 rpm for 20 minutes. The supernatant was then collected and mixed with 5× loading buffer (Beyotime Bio P0015) to make the final samples for SDS-PAGE analysis. The samples were heated at 100° C. for 10 minutes and cool to room temperature before centrifuging at 13000 rpm for 20 minutes. To analyze the samples by SDS-PAGE, 10 ul samples were loaded onto SDS-PAGE gel (Novex, WG1403BOX) and the SDS-PAGE gel was run for 20 minutes at 80 V, then at 120 V for 1.5 hours. The SDS-PAGE gel was then transferred to nitrocellulose membrane using the wet-transfer method at 250 mA for 1.5 hours. The membrane was then blocked with LI-COR blocking buffer (LI-COR, 927-50000) for 1 hour and was probed with primary antibody (mouse anti-STAT3 (124H6) (CST #91395) 1:2000 or mouse anti-beta-Actin (8H10D10) (CST #3700) 1:10000) at 4° C. overnight. The membrane was then washed three times with TBST buffer and probed with secondary antibody (anti-mouse IgG (LI-COR, 926-68070), 1:5000) for 1 hour at room temperature. The membrane was then scanned on a LI-COR Odyssey instrument and was quantified using Image Studio Version 5.2. Concentration at 50% degradation (DC50) was calculated by fitting dose dependent degradation data using a sigmoidal equation using GraphPad Prism Version 8.0.

Structure (SMILES)	DC50
C/C(=C\C(=O)N[C@H]1CCc2cccc3c2N(C1=O)[C@H](C(=O)N[C@@H](CCC(N)=O)[C@@H](C)OCc1ccc(CCCOCC(=O)N[C@H](C(=O)N2C[C@@H](O)C[C@H]2C(=O)NCc2ccc(-c4scnc4C)cc2)C(C)(C)C)cc1)C3)c1ccc(C(F)(F)P(=O)(OCOC(=O)C(C)(C)C)OCOC(=O)C(C)(C)C)cc1	> 30 µM
C/C(=C\C(=O)N[C@H]1CCc2cccc3c2N(C1=O)[C@H](C(=O)N[C@@H](CCC(N)=O)[C@@H](C)OCc1ccc(CCCOCCOCCOCCOCCOCCOc2cc(-c4scnc4C)ccc2CNC(=O)[C@@H]2C[C@@H](O)CN2C(=O)[C@@H](NC(=O)C2(F)CC2)C(C)(C)C)cc1)C3)c1ccc(C(F)(F)P(=O)(OCOC(=O)C(C)(C)C)OCOC(=O)C(C)(C)C)cc1	> 30 µM
